Out of some 220,000 compounds screened, about 2,400 (1.1%) were called active. Inconclusive results, whose numbers are uncertain, are shown with a selection of clear calls. Calls follow the shape of the dose curve; as a rule, active = well fitted inhibition curve with a large enough effect; inconclusive = small, poorly fitted or top-dose-only effect, or effect the other way; inactive = no such curve, though single readings can be large or run the other way. Potencies of inconclusive entries are doubtful fits and often do not repeat.
experiment: qHTS Multiplex Assay to Identify Dual Action Probes in a Cell Model of Huntington: Aggregate Formation (GFP); settings: PC12 HttQ103-GFP aggregates, Acumen cytometry, 40 h; activity change, negative = inhibition: at 46.1 µM (top of the series) unless noted; also: nearly all actives have a fitted effect of over 60% in size
Procedure, shortened: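 Steps: seed 1500 PC12 HTTQ103-GFP cells/well; add tebufenozide, 100 nM final; add compound titration; add ATPLite reagent; quantify GFP aggregates by laser scanning cytometry.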
% is scaled to controls: 0 for no effect and ±100 for the full control effect; potency is read from the fitted curve at half-maximal effect.

Which Potency does the source give for O=C(Nc1ccc(Oc2ccccc2)cc1)C1CCN(c2ncccn2)CC1 here?
Its Potency is inconclusive: 3.55 µM [inhibitor, partial curve].

Which Potency does the source give for Clc1ccc(-c2nnc(-c3ccccc3)o2)c(Cl)c1 here?
Its Potency is “inactive”.

With Cc1c(C(=O)c2no[n+]([O-])c2C(=O)c2cnn(C)c2C)cnn1C as the compound, how does the Potency read?
The Potency was inconclusive: 35.5 µM [inhibitor, single point].

With O=C1C=CC(=O)N1CCCCCCN1C(=O)C=CC1=O as the compound, how does the Potency read?
Its Potency is active: 5.01 µM.

With COc1ccc2nc(SCC(=O)N3CCCCC3)c(C#N)cc2c1 as the compound, how does the activity change, negative = inhibition read?
The activity change, negative = inhibition was inactive: 13.1% [at 9.22 µM].

For Nc1c(Cl)ncnc1N1CCN(c2ncnc(Cl)c2N)CC1, which Potency is on record?
The Potency was inconclusive: 35.5 µM [inhibitor, single point].

For CCOC(=O)/C(C#N)=C\c1cn(C)c2ccccc12, which activity change, negative = inhibition is on record?
The activity change, negative = inhibition was inactive: 11.1% [at 9.22 µM].

With CCC(Sc1nc(-c2ccccc2)c(C#N)c(=O)[nH]1)C(=O)Nc1nnc(C)s1 (stereo unspecified) as the compound, how does the Potency read?
Its Potency is “inactive”.

With CCNCc1ccccc1OCc1ccccc1 as the compound, how does the Potency read?
Its Potency is “inactive”.

Which Potency does the source give for Cc1cccc(-c2noc(CN(C(=O)C(c3ccccc3)c3ccccc3)C(C)C)n2)c1 here?
The Potency was inconclusive: 35.5 µM [inhibitor, single point].

With Cn1c(CNC(=O)OC(C)(C)C)n[nH]c1=S as the compound, how does the activity change, negative = inhibition read?
Its activity change, negative = inhibition is inactive: -2.26% [at 9.22 µM].

For Nc1ccc(N(c2ccccc2)c2ccc(N)cc2)cc1, which Potency is on record?
Its Potency is “inactive”.

For COc1cccc(NC(=O)Nc2ccc(C(C)(C)C)cc2)c1, which Potency is on record?
The Potency was inconclusive: 35.5 µM [inhibitor, single point].

Which Potency does the source give for CC(=O)c1c(C)oc2ccc(O)c(CN3CCOCC3)c12 here?
The Potency was “inactive”.

Which Potency does the source give for COC(=O)c1ccc[n+](CC(=O)Nc2ccc(OC(F)F)cc2)c1 here?
Its Potency is inconclusive: 3.98 µM [activator, full curve, poor fit].

Which Potency does the source give for Cn1c(=O)c(=O)n(C)c2cc(S(=O)(=O)Nc3ccc4c(c3)OCCO4)ccc21 here?
The Potency was “inactive”.

For CCN(CC)C(=O)c1ccccc1NS(C)(=O)=O, which activity change, negative = inhibition is on record?
Its activity change, negative = inhibition is inactive: -4.72% [at 9.22 µM].

For CCOc1cc(C(=O)O)cc(Cl)c1OCC#N, which Potency is on record?
Its Potency is inconclusive: 1.26 µM [activator, single point].

For NC(=S)N/N=C/C=C/c1ccccc1, which Potency is on record?
Its Potency is inconclusive: 35.5 µM [activator, single point].

For CCOc1cc(-c2nc3cc(C)ccn3c2NCC2CCCO2)ccc1O (stereo unspecified), which Potency is on record?
Its Potency is inconclusive: 35.5 µM [activator, single point].

With CCOC(=O)N1CC=C2C(C#N)=C(N)C(C#N)(C#N)[C@H](c3cccs3)[C@H]2C1 as the compound, how does the Potency read?
The Potency was inconclusive: 35.5 µM [activator, single point].

Which Potency does the source give for Cc1ccccc1-c1cc(C(=O)Nc2sc(C)c(C)c2C(N)=O)c2ccccc2n1 here?
Its Potency is inconclusive: 31.6 µM [inhibitor, single point].

For Cc1ccn(-c2cc(O)c(-n3ccc(C)n3)cc2O)n1, which Potency is on record?
Its Potency is “inactive”.

Which Potency does the source give for O=C1c2cccc(OCC(=O)N3CCCc4ccccc43)c2CCN1Cc1ccc(F)cc1 here?
Its Potency is inconclusive: 35.5 µM [inhibitor, single point].

With COC(=O)c1cc(CSc2nc3ccccc3[nH]2)oc1C as the compound, how does the Potency read?
Its Potency is inconclusive: 35.5 µM [inhibitor, single point].

With O=C(C(c1ccccc1)c1ccccc1)N1CCN(CC(O)COc2ccccc2)CC1 (stereo unspecified) as the compound, how does the Potency read?
Its Potency is inconclusive: 25.1 µM [inhibitor, single point].

For CCCn1c(SCC(=O)Nc2ccccc2C(=O)OC)nc2c1c(=O)n(C)c(=O)n2C, which Potency is on record?
The Potency was inconclusive: 5.62 µM [inhibitor, single point].

Which Potency does the source give for N#Cc1cc(C(=O)c2cc(Br)ccc2O)cn(C2CC2)c1=O here?
The Potency was inconclusive: 25.1 µM [inhibitor, single point].

With CCCn1nnc(NC(=O)C(C)Oc2ccc(Cl)cc2Cl)n1 (stereo unspecified) as the compound, how does the Potency read?
Its Potency is “inactive”.

Which Potency does the source give for Cc1ccc(NC(=O)C(C)c2ccc(-c3ccccc3)c(F)c2)cc1 (stereo unspecified) here?
The Potency was inconclusive: 11.2 µM [inhibitor, partial curve].

Which Potency does the source give for Cc1nc2ccc(NC(=O)c3ccc(Cl)c(S(=O)(=O)N(C)c4ccccc4)c3)cc2s1 here?
Its Potency is inconclusive: 11.2 µM [inhibitor, partial curve, poor fit].

For CCN1C/C(=C/c2cccc([N+](=O)[O-])c2)C(=O)/C(=C/c2cccc([N+](=O)[O-])c2)C1, which Potency is on record?
The Potency was inconclusive: 5.62 µM [activator, single point].

For NCCN, which Potency is on record?
Its Potency is “inactive”.

With Cn1c(NC(=O)/C=C/c2ccccc2)cc(=O)n(C)c1=O as the compound, how does the Potency read?
The Potency was inconclusive: 5.62 µM [activator, single point].

For COc1ccc(C(=O)Nc2ccc(N3CCCC3)cc2)cc1, which Potency is on record?
Its Potency is “inactive”.

For Cc1ccc(/C=C/S(=O)(=O)NCc2ccc(F)cc2)cc1, which Potency is on record?
Its Potency is “inactive”.

Which Potency does the source give for Cc1ccc(C(=O)c2cc(C)sc2NC(=O)CN2CCN(C(=O)c3ccco3)CC2)cc1 here?
The Potency was inconclusive: 35.5 µM [inhibitor, single point].

For O=C(CN1C(=O)S/C(=C\C=C\c2ccccc2)C1=O)Nc1cccc(O)c1, which Potency is on record?
The Potency was inconclusive: 2 µM [activator, partial curve].

For CC(=O)N1N=C(c2cccc([N+](=O)[O-])c2)OC1(C)CC(=O)Nc1ccccc1 (stereo unspecified), which Potency is on record?
The Potency was inconclusive: 14.1 µM [inhibitor, single point].

With COc1ccc(C(=O)Nc2cc(C(C)=O)c(C)oc2=O)cc1 as the compound, how does the Potency read?
The Potency was inconclusive: 35.5 µM [inhibitor, single point].

For Cc1ccc(C2Nc3ccccc3C(=O)N2Cc2ccco2)cc1 (stereo unspecified), which Potency is on record?
The Potency was “inactive”.

Which Potency does the source give for CCOC(=O)N1CCN(c2nc(C(F)(F)F)nc3c(C)cc(C)cc23)CC1 here?
The Potency was inconclusive: 35.5 µM [inhibitor, single point].

Which Potency does the source give for O=C(O)/C=C/c1ccc2noc(-c3ccccc3)c2c1 here?
Its Potency is active: 3.98 µM.

For CCc1nnc(NC(=O)CSc2ncnc3c2oc2ccccc23)s1, which Potency is on record?
Its Potency is inconclusive: 11.2 µM [activator, single point].

For Cn1c(-c2ccccc2)c(C(=O)CCl)c2ccccc21, which Potency is on record?
Its Potency is inconclusive: 25.1 µM [inhibitor, single point].

Which Potency does the source give for Cc1cc(N)n2nc(-c3ccccc3)cc2n1 here?
Its Potency is inconclusive: 11.2 µM [inhibitor, single point].

Which Potency does the source give for CCn1c(=O)n(CC)c2cc(S(=O)(=O)Nc3ccccc3C)c(C)cc21 here?
The Potency was inconclusive: 3.55 µM [activator, partial curve].

For CC(OC(=O)c1ccc(S(=O)(=O)N(C)c2ccccc2)cc1)C(=O)NCCC1=CCCCC1 (stereo unspecified), which Potency is on record?
The Potency was inconclusive: 35.5 µM [inhibitor, single point].

With COc1ccc(CCN2C(=O)C3CC(C)=C(C)CC3C2=O)cc1OC (stereo unspecified) as the compound, how does the Potency read?
Its Potency is inconclusive: 0.708 µM [inhibitor, single point].

Which Potency does the source give for COc1ccc(C2C3=C(CC(C)(C)CC3=O)Oc3ncn(Cc4ccccc4)c(=N)c32)cc1 (stereo unspecified) here?
The Potency was “inactive”.

With Cn1c(=O)c2c(nc(CN3CCN(C(=O)c4ccco4)CC3)n2Cc2cccc(Cl)c2)n(C)c1=O as the compound, how does the Potency read?
Its Potency is “inactive”.

Which activity change, negative = inhibition does the source give for CCOC(=O)c1cc(C#N)c(SCC(N)=O)[nH]c1=O here?
Its activity change, negative = inhibition is inactive: 0.669% [at 9.22 µM].

For COC(=O)c1nnn(-c2cc(Cl)cc(Cl)c2)c1C(=O)OC, which activity change, negative = inhibition is on record?
Its activity change, negative = inhibition is inactive: -4.72% [at 9.22 µM].

For Cc1cc(C(=O)CSc2nnc(-c3cccs3)n2Cc2ccccc2)c(C)n1C, which Potency is on record?
The Potency was “inactive”.

With Cc1ccc(CN2CCSc3sccc3C2=O)cc1 as the compound, how does the Potency read?
The Potency was inconclusive: 1.12 µM [inhibitor, full curve].

For Cn1c(=O)c2ncn(CC(=O)Nc3cccc(-c4nc5ccccc5s4)c3)c2n(C)c1=O, which Potency is on record?
Its Potency is “inactive”.

For O=C(NC1(O)C(=O)c2ccccc2C1=O)c1ccccc1, which Potency is on record?
The Potency was inconclusive: 6.31 µM [inhibitor, single point].

For CN(C)c1ccc(CNn2cnnc2SCc2ccccc2F)cc1, which Potency is on record?
The Potency was inconclusive: 1.26 µM [inhibitor, single point].

With O=C1C(=O)N(CC2CCCO2)C(c2ccco2)/C1=C(/O)c1ccc(F)cc1 (stereo unspecified) as the compound, how does the activity change, negative = inhibition read?
Its activity change, negative = inhibition is inactive: 11.1% [at 9.22 µM].

For N#Cc1ccc(/C=N/NC(=O)c2ccccc2F)cc1, which Potency is on record?
Its Potency is inconclusive: 5.01 µM [inhibitor, single point].

Which Potency does the source give for O=C(COn1nnc2ccc(C(F)(F)F)cc21)Nc1nnc(-c2ccccc2)o1 here?
The Potency was inconclusive: 35.5 µM [inhibitor, single point].

For COc1cccc2cc(/C(=N/O)c3ccccc3)oc12, which Potency is on record?
Its Potency is inconclusive: 3.55 µM [inhibitor, full curve, poor fit].

For COc1ccc(-c2nnc(SCc3nnc(-c4ccc(Cl)cc4)o3)n2-c2ccccc2)cc1, which Potency is on record?
Its Potency is inconclusive: 35.5 µM [inhibitor, single point].

With Cn1cc([N+](=O)[O-])c(C(=O)NCc2cc3cc(Cl)ccc3[nH]2)n1 as the compound, how does the Potency read?
The Potency was inconclusive: 15.8 µM [activator, single point].

Which Potency does the source give for CC(Oc1ccc2ccccc2c1)C(=O)NNC(=S)NC(=O)c1ccco1 (stereo unspecified) here?
Its Potency is active: 11.2 µM.

Which Potency does the source give for O=C(c1cccc([N+](=O)[O-])c1)N1CCN(c2ccc(Cl)cc2)CC1 here?
Its Potency is inconclusive: 25.1 µM [inhibitor, single point].

For Cc1noc(C)c1S(=O)(=O)Nc1ccc(C(=O)N2CCN(c3cccc(Cl)c3)CC2)cc1, which Potency is on record?
Its Potency is inconclusive: 35.5 µM [inhibitor, single point].

Which Potency does the source give for COc1ccc(C2CC(=O)C3=C(C2)Nc2ncnn2C3c2ccccc2)cc1 (stereo unspecified) here?
Its Potency is “inactive”.

For COc1cccc(N2CCN(CC(=O)Nc3nnc(-c4ccccc4)s3)CC2)c1, which Potency is on record?
Its Potency is inconclusive: 35.5 µM [inhibitor, single point].

With OC(c1cc(-c2ccc(C(F)(F)F)cc2)nc(C(F)(F)F)c1)C1CCCCN1 (stereo unspecified) as the compound, how does the activity change, negative = inhibition read?
Its activity change, negative = inhibition is inactive: -8.36% [at 9.22 µM].

Which Potency does the source give for O=S(=O)(c1ccc(OCC(O)CN2CCN(c3ccccc3Cl)CC2)cc1)N1CCOCC1 (stereo unspecified) here?
Its Potency is inconclusive: 17.8 µM [inhibitor, single point].
